For 1 substance, binding results are on record in publication PMC3674349.

Amino acid sequences for entries named in this document (tags omitted).
UniProt Q14571: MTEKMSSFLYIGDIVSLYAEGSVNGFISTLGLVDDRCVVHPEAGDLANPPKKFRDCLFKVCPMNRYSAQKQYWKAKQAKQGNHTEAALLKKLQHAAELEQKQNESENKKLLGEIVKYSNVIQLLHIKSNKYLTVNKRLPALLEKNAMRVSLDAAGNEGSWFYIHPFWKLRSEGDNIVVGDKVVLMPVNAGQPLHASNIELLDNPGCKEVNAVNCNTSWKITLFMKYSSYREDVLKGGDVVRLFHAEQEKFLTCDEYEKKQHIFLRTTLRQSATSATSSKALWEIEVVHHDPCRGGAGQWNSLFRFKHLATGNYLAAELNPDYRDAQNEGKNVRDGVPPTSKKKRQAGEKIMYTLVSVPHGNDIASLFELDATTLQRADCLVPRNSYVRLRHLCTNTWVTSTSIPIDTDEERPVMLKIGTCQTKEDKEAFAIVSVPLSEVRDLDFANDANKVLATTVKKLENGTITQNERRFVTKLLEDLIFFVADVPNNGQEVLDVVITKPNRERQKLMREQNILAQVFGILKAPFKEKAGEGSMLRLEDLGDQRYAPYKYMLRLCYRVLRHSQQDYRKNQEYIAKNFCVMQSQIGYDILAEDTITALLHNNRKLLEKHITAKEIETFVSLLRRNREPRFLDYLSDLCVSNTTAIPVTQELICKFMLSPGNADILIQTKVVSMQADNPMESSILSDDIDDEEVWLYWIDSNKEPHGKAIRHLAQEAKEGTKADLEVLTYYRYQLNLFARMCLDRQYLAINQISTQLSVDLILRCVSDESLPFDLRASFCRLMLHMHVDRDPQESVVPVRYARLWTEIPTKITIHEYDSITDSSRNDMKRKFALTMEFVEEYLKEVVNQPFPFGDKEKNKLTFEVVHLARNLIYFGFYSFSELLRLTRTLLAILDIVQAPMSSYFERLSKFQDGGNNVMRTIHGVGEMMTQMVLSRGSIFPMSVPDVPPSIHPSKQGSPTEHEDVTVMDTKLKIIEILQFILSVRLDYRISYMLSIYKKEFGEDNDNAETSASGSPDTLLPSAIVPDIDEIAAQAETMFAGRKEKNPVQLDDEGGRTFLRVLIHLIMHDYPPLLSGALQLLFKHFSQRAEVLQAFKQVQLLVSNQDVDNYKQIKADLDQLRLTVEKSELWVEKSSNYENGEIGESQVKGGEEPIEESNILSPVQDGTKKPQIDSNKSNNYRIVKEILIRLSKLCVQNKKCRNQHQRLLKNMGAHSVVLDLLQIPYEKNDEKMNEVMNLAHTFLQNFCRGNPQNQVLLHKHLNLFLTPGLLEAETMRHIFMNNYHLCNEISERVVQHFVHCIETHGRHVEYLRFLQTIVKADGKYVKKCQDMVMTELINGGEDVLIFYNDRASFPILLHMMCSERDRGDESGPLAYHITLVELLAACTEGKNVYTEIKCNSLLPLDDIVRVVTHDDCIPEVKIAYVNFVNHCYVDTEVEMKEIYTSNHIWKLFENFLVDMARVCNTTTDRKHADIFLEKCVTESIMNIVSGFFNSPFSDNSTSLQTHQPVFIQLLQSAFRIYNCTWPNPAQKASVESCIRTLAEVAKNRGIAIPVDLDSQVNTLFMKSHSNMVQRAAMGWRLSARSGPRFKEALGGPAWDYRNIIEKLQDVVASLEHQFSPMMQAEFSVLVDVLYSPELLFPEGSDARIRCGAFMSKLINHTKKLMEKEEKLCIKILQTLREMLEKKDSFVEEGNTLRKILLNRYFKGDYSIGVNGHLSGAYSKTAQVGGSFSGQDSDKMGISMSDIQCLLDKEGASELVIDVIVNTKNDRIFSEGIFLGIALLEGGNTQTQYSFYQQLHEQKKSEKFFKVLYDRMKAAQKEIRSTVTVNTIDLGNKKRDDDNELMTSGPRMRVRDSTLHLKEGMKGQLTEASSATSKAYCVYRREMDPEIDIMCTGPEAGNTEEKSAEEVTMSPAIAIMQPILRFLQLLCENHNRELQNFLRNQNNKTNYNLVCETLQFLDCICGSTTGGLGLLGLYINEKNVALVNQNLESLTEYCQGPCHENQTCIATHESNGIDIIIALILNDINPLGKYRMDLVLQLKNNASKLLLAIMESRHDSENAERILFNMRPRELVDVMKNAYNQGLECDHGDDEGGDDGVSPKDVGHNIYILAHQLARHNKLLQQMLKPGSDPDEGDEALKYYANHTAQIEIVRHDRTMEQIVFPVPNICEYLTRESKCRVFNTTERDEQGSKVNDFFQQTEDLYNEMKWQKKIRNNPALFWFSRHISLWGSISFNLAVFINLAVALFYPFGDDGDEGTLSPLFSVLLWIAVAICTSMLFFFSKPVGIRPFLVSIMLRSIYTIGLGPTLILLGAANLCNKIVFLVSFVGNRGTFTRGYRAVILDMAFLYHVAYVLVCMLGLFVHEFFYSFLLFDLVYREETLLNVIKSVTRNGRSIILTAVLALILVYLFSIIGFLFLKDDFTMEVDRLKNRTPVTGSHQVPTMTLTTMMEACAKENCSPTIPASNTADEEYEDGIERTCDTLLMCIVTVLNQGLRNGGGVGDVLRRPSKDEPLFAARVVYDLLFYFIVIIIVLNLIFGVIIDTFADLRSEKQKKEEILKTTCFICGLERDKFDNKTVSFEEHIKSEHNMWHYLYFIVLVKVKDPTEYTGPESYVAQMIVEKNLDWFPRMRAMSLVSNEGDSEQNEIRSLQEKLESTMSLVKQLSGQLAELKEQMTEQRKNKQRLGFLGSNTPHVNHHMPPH
UniProt P10415: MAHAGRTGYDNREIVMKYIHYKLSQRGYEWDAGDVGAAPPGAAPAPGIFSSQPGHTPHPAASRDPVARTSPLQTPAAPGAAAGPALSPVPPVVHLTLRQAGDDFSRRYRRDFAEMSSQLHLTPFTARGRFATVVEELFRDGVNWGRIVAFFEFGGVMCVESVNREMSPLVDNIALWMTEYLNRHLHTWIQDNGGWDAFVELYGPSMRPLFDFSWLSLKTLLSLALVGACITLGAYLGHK

Results are given in words; binding and its absence hold for the method and conditions named. Binding seen in cells or lysates may run through a third protein. Some results given as binding are weak or reduced against the parent protein; the word gives no strength.

Assay [1] addresses inositol 1,4,5-trisphosphate receptor type 2 (IP3R2) (human (endogenous in SU-DHL-4 and OCI-LY-1)) (UniProt Q14571). The experiment in a line: co-IP; SU-DHL-4 lysate (25 mM HEPES pH 7.5, 1% Triton X-100, 300 mM NaCl); endogenous IP3R2 or IP3R3 immunoprecipitated on Protein-A/G magnetic beads overnight, blot for Bcl-2; cells pretreated 2 h without or with 10 μM TAT-IDP^S.
For assay [2] the target is unchanged. Put plainly: co-IP; OCI-LY-1 lysate (25 mM HEPES pH 7.5, 1% Triton X-100, 300 mM NaCl); endogenous IP3R2 or IP3R3 immunoprecipitated on Protein-A/G magnetic beads overnight, blot for Bcl-2; cells pretreated 2 h without or with 10 μM TAT-IDP^S.

For the substance “B-cell lymphoma 2 (Bcl-2) (from UniProt P10415 1-239)”, the binding entry was “binds” in assay [1] and “binds weakly” in assay [2].
